Here are results for 13 compounds from PubChem BioAssay AID206 (DTP/NCI, 2004).

The subject of the experiment is nude mice, HT29 intrarenal xenograft, tumor weight T/C. The experiment in a line: NCI In Vivo Anticancer Drug Screen. Data for tumor model HT29;CX-1 Human Adenocarcinoma (MER+) (intrarenal inoculation) in NU/NU Swiss (nude) mice. The note with it: T/C endpoint: mean tumor weight change, higher T/C = larger tumour. The protocol:
The antitumor activity of compounds was measured in mice bearing transplantable tumors. Survival or tumor size were measured and the results are expressed as the measurement made in the treated group (T) divided by the measurement made in the vehicle treated control group (C). The tumor model used in this assay is HT29;CX-1 Human Adenocarcinoma (MER+) (intrarenal inoculation) in NU/NU Swiss (nude) mice

Setting [1] is: dose: 100.0 mg/kg/injection, schedule: Q01DX010 (sc), vehicle: saline.
[2] abbreviates: dose: 200.0 mg/kg/injection, schedule: Q01DX010 (sc), vehicle: saline.

The list shows only some results of the screen, not a fair sample: it gathers tests that were run many times, whatever their T/C, doses with no T/C, and many T/C values between a quarter and a half above the control. Further doses and runs are listed elsewhere. T/C gives the treated animals as a percentage of the vehicle group. Schedule codes are those of the source, read here as Q, the interval in days (D) or hours (H), X, the number of doses. Some T/C values carry the count of animals alive at the toxicity check (mostly the fifth day); where none is given, no animal had died by that day. Some values lie below zero, which means that the treated tumours became smaller. Some entries hold several experiments; the results are listed from low to high. Some structures stand for samples that the source files as different forms (salt, stereo form or complex); doses refer to the form tested. Some entries give survivors of the animals treated and no T/C: the source files T/C as zero there, which appears to mark a toxic dose or a test without result, not a measured value. Survivors were counted at the toxicity check, usually on the fifth day, unless a day is given; later deaths do not show.

For `COc1cccc2c1C(=O)c1c(O)c3c(c(O)c1C2=O)C[C@@](O)(C(=O)CO)C[C@@H]3OC1CC(N)C(O)C(C)O1` (stereo partly specified), the T/C (dose: 1.0 mg/kg/injection, schedule: Q01DX010 (sc), vehicle: water, evaluated on day 11) was 40 % of control; the T/C (dose: 1.0 mg/kg/injection, schedule: Q01DX010 (sc), vehicle: water, evaluated on day 20) is listed as 44, 87, 147 % of control; the T/C (dose: 2.0 mg/kg/injection, schedule: Q01DX010 (sc), vehicle: water, evaluated on day 11) was 9 % of control [2 of 2 alive on day 11]; the T/C (dose: 2.0 mg/kg/injection, schedule: Q01DX010 (sc), vehicle: water, evaluated on day 20) is 23 [2 of 3 alive on day 20], 63, 83 [2 of 2 alive on day 20], 87, 105, 142, 240 % of control; the T/C (dose: 4.0 mg/kg/injection, schedule: Q01DX010 (sc), vehicle: water, evaluated on day 11) is 19 % of control [2 of 2 alive on day 11]; the T/C (dose: 4.0 mg/kg/injection, schedule: Q01DX010 (sc), vehicle: water, evaluated on day 20) is -10, 6 [2 of 3 alive on day 20], 28, 54, 98 [2 of 3 alive on day 20], 104, 128 % of control. Besides, the T/C (dose: 5.0 mg/kg/injection, schedule: Q04DX004 (sc), vehicle: water, evaluated on day 15) was -17, 17, 20 [2 of 3 alive on day 15], 35, 53, 56 [2 of 2 alive on day 15], 62, 80, 138 % of control; the T/C (dose: 5.0 mg/kg/injection, schedule: Q04DX004 (sc), vehicle: water, evaluated on day 20) is 39 % of control; the T/C (dose: 10.0 mg/kg/injection, schedule: Q04DX004 (sc), vehicle: water, evaluated on day 15) is -32, 1, 35, 41, 72, 73 [2 of 3 alive on day 15], 74 [2 of 3 alive on day 15], 91 % of control. For the same compound, the survivor count (dose: 2.0 mg/kg/injection, schedule: Q01DX010 (ip), vehicle: water) is reported as 1 of 2 on day 11; the survivor count (dose: 4.0 mg/kg/injection, schedule: Q01DX010 (ip), vehicle: water) was 0 of 3 on day 11 and 1 of 3 on day 11; the survivor count (dose: 5.0 mg/kg/injection, schedule: Q04DX004 (sc), vehicle: water) is listed as 1 of 2 on day 15; the survivor count (dose: 8.0 mg/kg/injection, schedule: Q01DX010 (sc), vehicle: water) is recorded as 0 of 2 on day 11; the survivor count (dose: 10.0 mg/kg/injection, schedule: Q04DX004 (sc), vehicle: water) was 1 of 3 on day 15 and 1 of 2 on day 20; the survivor count (dose: 12.0 mg/kg/injection, schedule: Q01DX010 (sc), vehicle: saline) is on record as 0 of 3 on day 20. In addition, the survivor count is, setting by setting: (dose: 15.0 mg/kg/injection, schedule: Q04DX004 (sc), vehicle: saline) 1 of 3 on day 15; (dose: 30.0 mg/kg/injection, schedule: Q04DX004 (sc), vehicle: saline) 0 of 3 on day 15; (dose: 60.0 mg/kg/injection, schedule: Q04DX004 (sc), vehicle: saline) 0 of 3 on day 15.
In the case of `Clc1ccc(CN2COc3c(ccc4cccnc34)C2)cc1Cl`, the T/C (dose: 400.0 mg/kg/injection, schedule: Q01DX010 (sc), vehicle: saline with Tween-80, evaluated on day 11) is 134 % of control.
For `COc1cccc2c1C(=O)c1c(O)c3c(c(O)c1C2=O)C[C@@](O)(/C(C)=N/NC(=O)c1ccc(Cl)cc1)C[C@@H]3OC1CC(N)C(O)C(C)O1` (stereo partly specified), the survivor count (dose: 80.0 mg/kg/injection, schedule: Q04DX004 (sc), vehicle: water) is 0 of 3 on day 15; the survivor count (dose: 160.0 mg/kg/injection, schedule: Q04DX004 (sc), vehicle: water) was 1 of 3 on day 15; the survivor count (dose: 320.0 mg/kg/injection, schedule: Q04DX004 (sc), vehicle: water) was 0 of 3 on day 15.
On to `NC(=O)/C=C/C(=O)c1c(Cl)cccc1Cl`, for which, where the note is “dose: 18.0 mg/kg/injection, schedule: Q04DX004 (sc), vehicle: saline with Tween-80, evaluated on day 15”, the T/C is 126 % of control. Further, the survivor count is, setting by setting: (dose: 72.0 mg/kg/injection, schedule: Q04DX004 (sc), vehicle: saline with Tween-80) 0 of 6 on day 15; (dose: 144.0 mg/kg/injection, schedule: Q04DX004 (sc), vehicle: saline with Tween-80) 0 of 6 on day 15.
Turning to `COc1ccc(S(=O)(=O)N/N=C/C(=O)O)cc1`, the survivor count was 1 of 6 on day 15 (dose: 800.0 mg/kg/injection, schedule: Q04DX004 (sc), vehicle: saline with Tween-80) and 0 of 6 on day 15 (dose: 1200.0 mg/kg/injection, schedule: Q04DX004 (sc), vehicle: saline with Tween-80).
In the case of `[Cl][Pt+2][Cl].[NH-]C1CCC1.[NH2-]`, the survivor count (dose: 50.0 mg/kg/injection, schedule: Q04DX004 (sc), vehicle: suspension in saline) is on record as 1 of 6 on day 15.
With `CS(=O)(=O)OCCCCOS(C)(=O)=O`, where the note is “dose: 12.5 mg/kg/injection, schedule: Q01DX010 (sc), vehicle: saline with Tween-80, evaluated on day 20”, the T/C is 129 % of control [2 of 2 alive on day 20]. For the same compound, the survivor count (dose: 50.0 mg/kg/injection, schedule: Q01DX010 (sc), vehicle: saline with Tween-80) is given as 0 of 3 on day 20.
Regarding `COc1cc(NCc2ccc3nc(N)nc(N)c3c2C)cc(OC)c1OC`, the T/C (dose: 4.7 mg/kg/injection, schedule: Q04DX004 (sc), vehicle: water, evaluated on day 15) is 130 % of control. The survivor count reads like this: (dose: 10.0 mg/kg/injection, schedule: Q01DX010 (sc), vehicle: sodium bicarbonate) 0 of 2 on day 11 and 0 of 3 on day 11; (dose: 75.0 mg/kg/injection, schedule: Q04DX004 (sc), vehicle: water) 3 of 6 on day 15; (dose: 150.0 mg/kg/injection, schedule: Q04DX004 (sc), vehicle: water) 0 of 6 on day 15; (dose: 300.0 mg/kg/injection, schedule: Q04DX004 (sc), vehicle: water) 0 of 6 on day 15; (dose: 600.0 mg/kg/injection, schedule: Q04DX004 (sc), vehicle: water) 0 of 6 on day 15.
Regarding `Nc1nc([Se])c2ncn(C3OC(CO)C(O)C3O)c2n1` (stereo unspecified), under “dose: 4.0 mg/kg/injection, schedule: Q01DX010 (sc), vehicle: saline, evaluated on day 11”, the T/C is 143 % of control.
Turning to `COC1C(OC(=O)/C=C/C=C/C=C/C=C/C(=O)O)CCC2(CO2)C1C1(C)OC1CC=C(C)C` (stereo unspecified), under “dose: 600.0 mg/kg/injection, schedule: Q04DX004 (sc), vehicle: saline”, the survivor count is on record as 2 of 6 on day 15.
For the compound `Nc1cc2[nH]cnc2c(=O)[nH]1`, the survivor count under setting [1] is listed as 0 of 3 on day 11 and the survivor count under setting [2] is recorded as 0 of 3 on day 11.
With `CO[C@H](C(=O)[C@@H](O)[C@@H](C)O)[C@@H]1Cc2cc3cc(OC4CC(OC5CC(O)C(O)C(C)O5)C(O)C(C)O4)c(C)c(O)c3c(O)c2C(=O)[C@H]1OC1CC(OC2CC(OC3CC(C)(O)C(O)C(C)O3)C(O)C(C)O2)C(O)C(C)O1` (stereo partly specified), the survivor count was 0 of 4 on day 11 and 1 of 3 on day 11 (dose: 2.0 mg/kg/injection, schedule: Q01DX010 (sc), vehicle: saline); 1 of 6 on day 15 and 2 of 6 on day 15 (dose: 6.0 mg/kg/injection, schedule: Q04DX004 (sc), vehicle: saline).
In the case of `O=c1n(CC2CO2)c(=O)n(CC2CO2)c(=O)n1CC1CO1` (stereo unspecified), the survivor count is recorded as 1 of 6 on day 15 (dose: 75.0 mg/kg/injection, schedule: Q04DX004 (sc), vehicle: saline with Tween-80); 0 of 3 on day 11 under setting [1]; 0 of 6 on day 15 (dose: 150.0 mg/kg/injection, schedule: Q04DX004 (sc), vehicle: saline with Tween-80); 0 of 3 on day 11 under setting [2].
